Experimental data from US10100081B2, “Trapping reagents for reactive metabolites screening” (Biogen MA Inc., priority 2012, dated 2018).

System: Pooled human liver microsomes (HLM)
Test: In vitro liver microsomal incubations of test drugs with cysteine or cys-chol trapping, adducts analysed by UPLC-LTQ Orbitrap or UPLC-AB SCIEX 5600
Assay type: in vitro ADME
Conditions: LC-MS/MS, same experiments as for cys-chol (FIGS. 6A, 6B)

Row | SMILES | detectable conjugate with carbamazepine
1 | N[C@@H](CS)C(=O)O [Cysteine, cysteine] | did not produce any detectable conjugate
2 | N[C@@H](CCC(=O)N[C@@H](CS)C(=O)NCC(=O)O)C(=O)O [GSH, glutathione] | did not produce any detectable conjugate
